Reference: PMC10943099

Biological target: NOT box-truncated mutant of CNOT3 (exogenous, detected with Flag antibody) (human)
Assay: proximity ligation; PLA on MOLM13 lines overexpressing CNOT3-FL, NOT box truncated CNOT3 or empty vector, Flag antibody to detect exogenous CNOT3 and antibodies against EEF1E and EEF1D

B1: EEF1E, the auxiliary component of the multi-synthetase complex (endogenous) (protein, UniProt O43324 1-174)
chain: MAAAAELSLLEKSLGLSKGNKYSAQGERQIPVLQTNNGPSLTGLTTIAAHLVKQANKEYLLGSTAEEKAIVQQWLEYRVTQVDGHSSKNDIHTLLKDLNSYLEDKVYLTGYNFTLADILLYYGLHRFIVDLTVQEKEKYLNVSRWFCHIQHYPGIRQHLSSVVFIKNRLYTNSH
  binding: no binding

No constants are given. Whether binding was seen depends on the method and setting. Binding seen in cells or lysates may run through a third protein.
